PubChem BioAssay AID1053208 | Peter MacCallum Cancer Centre – 2014
In all, the deposit lists about 17,000 reagents; shown is an unselected part. In the full data, 788 (4.7%) were called active. 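Calls rest on z-score classes alone; an extra cut-off of viability at most 70% of control was not applied to them.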 Entries without a mark were called inactive. Reagents against one gene are numbered here. Not all columns of the deposit are shown.

- Assay: 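Synthetic lethal interactions between gene loss and doxorubicin in osteosarcoma cells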 (primary screen)
- System: mouse osteosarcoma cells, early-passage culture from an engineered mouse model of fibroblastic bone tumour
- Knock-down reagent: siRNA pool against mouse genes, 40 nM
- Duration: about 120 h (48 h before drug, then 72 h with drug)
- Conditions: doxorubicin 100 nM for 72 h, roughly 30-40% inhibitory dose
- Measured: 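Viability read as ATP luminescence after 72 h of 100 nM doxorubicin or none, duplicate wells averaged, scaled to non-targeting siRNA, then expressed as robust z-scores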
- Scale: viability z-score with doxorubicin: higher = more viable cells under doxorubicin; viability z-score without drug: higher = more viable cells with knock-down alone
- Active means: 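a pool counts as active when its viability z-score with doxorubicin is -2 or below and its z-score without drug lies between -2 and 2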

What did the screen give for Igtp (interferon gamma induced GTPase)?
combined z-score class: no change with or without drug; viability z-score with doxorubicin: -1.12; viability z-score without drug: -0.51

Which result is listed for Wars2 (tryptophanyl tRNA synthetase 2 (mitochondrial))?
combined z-score class: no change with or without drug; viability z-score with doxorubicin: 1.8; viability z-score without drug: 1.18

For Ssc5d (scavenger receptor cysteine rich family, 5 domains), how do the results read?
combined z-score class: no change with or without drug; viability z-score with doxorubicin: -0.67; viability z-score without drug: 0.34

For Arhgap25 (Rho GTPase activating protein 25), what was measured?
combined z-score class: no change with or without drug; viability z-score with doxorubicin: 1.35; viability z-score without drug: -0.17

What did the screen give for Crebbp (CREB binding protein)?
combined z-score class: no change with or without drug; viability z-score with doxorubicin: -0.9; viability z-score without drug: -0.17

With Dnah2 (dynein, axonemal, heavy chain 2), how do the results read?
combined z-score class: no change with or without drug; viability z-score with doxorubicin: -1.69; viability z-score without drug: -1.52

What did the screen give for Ccdc73 (coiled-coil domain containing 73)?
combined z-score class: high cell count without drug only; viability z-score with doxorubicin: 1.12; viability z-score without drug: 4.05

With Or10p22 (olfactory receptor family 10 subfamily P member 22), what does the deposit list?
combined z-score class: high cell count without drug only; viability z-score with doxorubicin: 0; viability z-score without drug: 2.36

With Gse1 (genetic suppressor element 1, coiled-coil protein), what does the deposit list?
combined z-score class: no change with or without drug; viability z-score with doxorubicin: 0.11; viability z-score without drug: -0.17

Which result is listed for 4833416I09RIK?
combined z-score class: no change with or without drug; viability z-score with doxorubicin: -0.67; viability z-score without drug: -0.67

For Cav2 (caveolin 2), what does the deposit list?
combined z-score class: no change with or without drug; viability z-score with doxorubicin: -0.45; viability z-score without drug: -0.17

For Cplx1 (complexin 1), what was measured?
combined z-score class: no change with or without drug; viability z-score with doxorubicin: 1.46; viability z-score without drug: 0.34

What is on record for Kdg4 (alpha-ketoglutarate dehydrogenase subunit 4)?
combined z-score class: no change with or without drug; viability z-score with doxorubicin: 1.12; viability z-score without drug: -0.84

With Nek9 (NIMA (never in mitosis gene a)-related expressed kinase 9), what was measured?
combined z-score class: no change with or without drug; viability z-score with doxorubicin: 0; viability z-score without drug: 1.52

What is on record for Ghrhr (growth hormone releasing hormone receptor)?
combined z-score class: no change with or without drug; viability z-score with doxorubicin: -0.9; viability z-score without drug: 0

For Eif3b (eukaryotic translation initiation factor 3, subunit B), how do the results read?
combined z-score class: low cell count with and without drug; viability z-score with doxorubicin: -5.17; viability z-score without drug: -3.2

How did the screen score Arhgap27 (Rho GTPase activating protein 27) #1?
combined z-score class: no change with or without drug; viability z-score with doxorubicin: -1.35; viability z-score without drug: 0.51

What is on record for Arhgap27 (Rho GTPase activating protein 27) #2?
combined z-score class: no change with or without drug; viability z-score with doxorubicin: -0.11; viability z-score without drug: 0.34

For Tpst1 (protein-tyrosine sulfotransferase 1), what was measured?
combined z-score class: no change with or without drug; viability z-score with doxorubicin: 1.12; viability z-score without drug: -0.51

With Aloxe3 (arachidonate lipoxygenase 3), what does the deposit list?
combined z-score class: no change with or without drug; viability z-score with doxorubicin: -1.12; viability z-score without drug: 0.17

With Serpinb8 (serine (or cysteine) peptidase inhibitor, clade B, member 8), how do the results read?
combined z-score class: no change with or without drug; viability z-score with doxorubicin: 1.69; viability z-score without drug: 0.17

Which result is listed for Usp49 (ubiquitin specific peptidase 49)?
combined z-score class: no change with or without drug; viability z-score with doxorubicin: 0; viability z-score without drug: 1.52

With Ndufa5 (NADH:ubiquinone oxidoreductase subunit A5), what was measured?
combined z-score class: low cell count with and without drug; viability z-score with doxorubicin: -3.15; viability z-score without drug: -2.53

With Ins1 (insulin I), what was measured?
combined z-score class: no change with or without drug; viability z-score with doxorubicin: 0; viability z-score without drug: -0.17

What is on record for Fam219b (family with sequence similarity 219, member B)?
combined z-score class: no change with or without drug; viability z-score with doxorubicin: -1.35; viability z-score without drug: -1.85

With Atrn (attractin), what does the deposit list?
combined z-score class: no change with or without drug; viability z-score with doxorubicin: -0.67; viability z-score without drug: -0.84

For Cmklr2 (chemerin chemokine-like receptor 2), what does the deposit list?
combined z-score class: no change with or without drug; viability z-score with doxorubicin: -0.67; viability z-score without drug: -0.51

For Hcar1 (hydrocarboxylic acid receptor 1), what was measured?
combined z-score class: no change with or without drug; viability z-score with doxorubicin: -1.8; viability z-score without drug: -0.51

A run of entries taken from the entries so far:
Ghrhr (growth hormone releasing hormone receptor): combined z-score class = no change with or without drug; viability z-score with doxorubicin = -0.9; viability z-score without drug = 0
Eif3b (eukaryotic translation initiation factor 3, subunit B): combined z-score class = low cell count with and without drug; viability z-score with doxorubicin = -5.17; viability z-score without drug = -3.2
Arhgap27 (Rho GTPase activating protein 27) #1: combined z-score class = no change with or without drug; viability z-score with doxorubicin = -1.35; viability z-score without drug = 0.51
Arhgap27 (Rho GTPase activating protein 27) #2: combined z-score class = no change with or without drug; viability z-score with doxorubicin = -0.11; viability z-score without drug = 0.34
